Data on one sequence can be found in paper PMC4992955, “Pichia pastoris Fep1 is a [2Fe-2S] protein with a Zn finger that displays an unusual oxygen-dependent role in cluster binding”.

This data set deals with T1, MBP-Fep1 (41-192) 4S C102S,C108S,C117S,C120S (Pichia pastoris (GS115)) (UniProt A4VAR6).
T1 sequence (looked up): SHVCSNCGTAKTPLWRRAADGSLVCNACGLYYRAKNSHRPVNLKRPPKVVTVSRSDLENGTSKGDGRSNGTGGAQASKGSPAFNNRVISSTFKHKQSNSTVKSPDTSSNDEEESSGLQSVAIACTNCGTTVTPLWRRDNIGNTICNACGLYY
The experiment in a line: EMSA. To be noted: 5 uM ZnSO4, 5 uM FeCl3; 12.5 mM Hepes pH 7.9, 75 mM NaCl, 4 mM MgCl2, 1 mM EDTA, 10% glycerol, 4 mM Tris-HCl pH 7.9, 0.6 mM DTT, 1 ug poly(dI-dC)2, 5 uM ZnSO4, 5 uM FeCl3; 100-250 ng protein; recombinant protein; residues 41-192; protein details: MBP fusion; label: 32P end-label (alpha-32P).

The comparison behind a weaker result is the experiment's own reference, which may not be listed here. Tags and fusion partners may be left off the protein sequences shown.

On to “GGCGATTGAACTGATAATTTTACTAAATAAGTGGAA / GGATTCCACTTATTTAGTAAAATTATCAGTTCAAT [fetgata2/fetgata1 (FET3 promoter GATA probe)]”, for which the binding result was “binds more weakly”.
